Earlier results as cited in US10487089B2, “Imaging agents and methods of identifying same” (The Trustees of the University of Pennsylvania, priority 2014, dated 2019).
For at least one compound, name, drawing or mass did not settle the structure.

Details: in NaOH 0.1 M; cited from earlier work

O=C1OC2(c3ccc(O)cc3Oc3cc(O)ccc32)c2ccccc21 [fluorescein]
quantum yield Φ of standard: 0.95
